In article PMC10409943 one finds binding data, which are given here for 4 molecules.

Chains of the proteins cited; added tags and fusions are not shown. Residues count along the entry.
UniProt P10912, residues 19-638: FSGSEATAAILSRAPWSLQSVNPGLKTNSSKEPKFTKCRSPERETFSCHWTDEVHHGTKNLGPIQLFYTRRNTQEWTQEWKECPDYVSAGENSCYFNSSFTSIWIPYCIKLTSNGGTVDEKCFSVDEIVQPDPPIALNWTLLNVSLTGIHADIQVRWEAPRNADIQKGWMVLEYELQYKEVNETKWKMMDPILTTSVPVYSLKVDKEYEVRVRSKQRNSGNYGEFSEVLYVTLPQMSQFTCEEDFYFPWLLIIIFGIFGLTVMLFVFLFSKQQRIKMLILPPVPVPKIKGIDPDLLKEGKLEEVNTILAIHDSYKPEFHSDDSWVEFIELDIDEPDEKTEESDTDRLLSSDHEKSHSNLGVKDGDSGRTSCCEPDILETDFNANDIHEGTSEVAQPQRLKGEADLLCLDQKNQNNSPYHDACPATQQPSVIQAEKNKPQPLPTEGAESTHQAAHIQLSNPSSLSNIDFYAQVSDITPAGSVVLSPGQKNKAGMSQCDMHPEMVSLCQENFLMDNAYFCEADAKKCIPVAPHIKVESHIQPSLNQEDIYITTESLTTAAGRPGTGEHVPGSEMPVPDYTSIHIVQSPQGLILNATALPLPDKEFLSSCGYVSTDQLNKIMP

No constants are given. Whether binding was seen depends on the method and setting. In cells and extracts the contact can be indirect. These calls come from enrichment with a bait or labelling near it, and not all partners need be listed.

B1: SLC1A5 (protein, UniProt Q15758 1-541)
chain: MVADPPRDSKGLAAAEPTANGGLALASIEDQGAAAGGYCGSRDQVRRCLRANLLVLLTVVAVVAGVALGLGVSGAGGALALGPERLSAFVFPGELLLRLLRMIILPLVVCSLIGGAASLDPGALGRLGAWALLFFLVTTLLASALGVGLALALQPGAASAAINASVGAAGSAENAPSKEVLDSFLDLARNIFPSNLVSAAFRSYSTTYEERNITGTRVKVPVGQEVEGMNILGLVVFAIVFGVALRKLGPEGELLIRFFNSFNEATMVLVSWIMWYAPVGIMFLVAGKIVEMEDVGLLFARLGKYILCCLLGHAIHGLLVLPLIYFLFTRKNPYRFLWGIVTPLATAFGTSSSSATLPLMMKCVEENNGVAKHISRFILPIGATVNMDGAALFQCVAAVFIAQLSQQSLDFVKIITILVTATASSVGAAGIPAGGVLTLAIILEAVNLPVDHISLILAVDWLVDRSCTVLNVEGDALGAGLLQNYVDRTESRSTEPELIQVKSELPLDPLPVPTEEGNPLLKHYRGPAGDATVASEKESVM
B2: TCOF1 (protein, UniProt Q13428 1-1488)
chain: MAEARKRRELLPLIYHHLLRAGYVRAAREVKEQSGQKCFLAQPVTLLDIYTHWQQTSELGRKRKAEEDAALQAKKTRVSDPISTSESSEEEEEAEAETAKATPRLASTNSSVLGADLPSSMKEKAKAETEKAGKTGNSMPHPATGKTVANLLSGKSPRKSAEPSANTTLVSETEEEGSVPAFGAAAKPGMVSAGQADSSSEDTSSSSDETDVEGKPSVKPAQVKASSVSTKESPARKAAPAPGKVGDVTPQVKGGALPPAKRAKKPEEESESSEEGSESEEEAPAGTRSQVKASEKILQVRAASAPAKGTPGKGATPAPPGKAGAVASQTKAGKPEEDSESSSEESSDSEEETPAAKALLQAKASGKTSQVGAASAPAKESPRKGAAPAPPGKTGPAVAKAQAGKREEDSQSSSEESDSEEEAPAQAKPSGKAPQVRAASAPAKESPRKGAAPAPPRKTGPAAAQVQVGKQEEDSRSSSEESDSDREALAAMNAAQVKPLGKSPQVKPASTMGMGPLGKGAGPVPPGKVGPATPSAQVGKWEEDSESSSEESSDSSDGEVPTAVAPAQEKSLGNILQAKPTSSPAKGPPQKAGPVAVQVKAEKPMDNSESSEESSDSADSEEAPAAMTAAQAKPALKIPQTKACPKKTNTTASAKVAPVRVGTQAPRKAGTATSPAGSSPAVAGGTQRPAEDSSSSEESDSEEEKTGLAVTVGQAKSVGKGLQVKAASVPVKGSLGQGTAPVLPGKTGPTVTQVKAEKQEDSESSEEESDSEEAAASPAQVKTSVKKTQAKANPAAARAPSAKGTISAPGKVVTAAAQAKQRSPSKVKPPVRNPQNSTVLARGPASVPSVGKAVATAAQAQTGPEEDSGSSEEESDSEEEAETLAQVKPSGKTHQIRAALAPAKESPRKGAAPTPPGKTGPSAAQAGKQDDSGSSSEESDSDGEAPAAVTSAQVIKPPLIFVDPNRSPAGPAATPAQAQAASTPRKARASESTARSSSSESEDEDVIPATQCLTPGIRTNVVTMPTAHPRIAPKASMAGASSSKESSRISDGKKQEGPATQVSKKNPASLPLTQAALKVLAQKASEAQPPVARTQPSSGVDSAVGTLPATSPQSTSVQAKGTNKLRKPKLPEVQQATKAPESSDDSEDSSDSSSGSEEDGEGPQGAKSAHTLGPTPSRTETLVEETAAESSEDDVVAPSQSLLSGYMTPGLTPANSQASKATPKLDSSPSVSSTLAAKDDPDGKQEAKPQQAAGMLSPKTGGKEAASGTTPQKSRKPKKGAGNPQASTLALQSNITQCLLGQPWPLNEAQVQASVVKVLTELLEQERKKVVDTTKESSRKGWESRKRKLSGDQPAARTPRSKKKKKLGAGEGGEASVSPEKTSTTSKGKAKRDKASGDVKEKKGKGSLGSQGAKDEPEEELQKGMGTVEGGDQSNPKSKKEKKKSDKRKKDKEKKEKKKKAKKASTKDSESPSQKKKKKKKKTAEQTV
B3: ACO2 (protein, UniProt Q99798 28-780)
chain: QRAKVAMSHFEPNEYIHYDLLEKNINIVRKRLNRPLTLSEKIVYGHLDDPASQEIERGKSYLRLRPDRVAMQDATAQMAMLQFISSGLSKVAVPSTIHCDHLIEAQVGGEKDLRRAKDINQEVYNFLATAGAKYGVGFWKPGSGIIHQIILENYAYPGVLLIGTDSHTPNGGGLGGICIGVGGADAVDVMAGIPWELKCPKVIGVKLTGSLSGWSSPKDVILKVAGILTVKGGTGAIVEYHGPGVDSISCTGMATICNMGAEIGATTSVFPYNHRMKKYLSKTGREDIANLADEFKDHLVPDPGCHYDQLIEINLSELKPHINGPFTPDLAHPVAEVGKVAEKEGWPLDIRVGLIGSCTNSSYEDMGRSAAVAKQALAHGLKCKSQFTITPGSEQIRATIERDGYAQILRDLGGIVLANACGPCIGQWDRKDIKKGEKNTIVTSYNRNFTGRNDANPETHAFVTSPEIVTALAIAGTLKFNPETDYLTGTDGKKFRLEAPDADELPKGEFDPGQDTYQHPPKDSSGQHVDVSPTSQRLQLLEPFDKWDGKDLEDLQILIKVKGKCTTDHISAAGPWLKFRGHLDNISNNLLIGAINIENGKANSVRNAVTQEFGPVPDTARYYKKHGIRWVVIGDENYGEGSSREHAALEPRHLGGRAIITKSFARIHETNLKKQGLLPLTFADPADYNKIHPVDKLTIQGLKDFTPGKPLKCIIKHPNGTQETILLNHTFNETQIEWFRAGSALNRMKELQQ
B4: high mobility group nucleosome binding domain 1 (protein, UniProt P05114 1-100)
chain: MPKRKVSSAEGAAKEEPKRRSARLSAKPPAKVEAKPKKAAAKDKSSDKKVQTKGKRGAKGKQAEVANQETKEDLPAENGETKTEESPASDEAGEKEAKSD

In the assay the target is growth hormone receptor (human (endogenous in RL95-2)) (UniProt P10912). Briefly: affinity purification with mass spectrometry; RL95-2 whole cell lysates (1 mg/ml), cells serum-starved and treated with or without 500 ng/ml GH; precipitated separately with anti-GHRIC and anti-GHREC antibodies on protein-G magnetic beads, eluates combined; peptides found in the IgG control filtered out; n = 3 per group.
For B1, the binding entry is given as “binds”.

Take B2: the binding entry was “binds”.

For the molecule B3, the binding entry is given as “binds”.

In the case of B4, the binding result is reported as “binds”.
